Measurements published in patent US6416957.
No signal at the amounts used counts as a negative. For some assays here: The exact form of at least one protein or probe is not confirmed. For some assays here: Where a protein sequence is shown, tags need not be part of it.

Sequences of proteins named here, by UniProt entry; tags and fusion partners are left off. A change or cut given only in a name is not applied to a line headed by its entry.
UniProt P19793: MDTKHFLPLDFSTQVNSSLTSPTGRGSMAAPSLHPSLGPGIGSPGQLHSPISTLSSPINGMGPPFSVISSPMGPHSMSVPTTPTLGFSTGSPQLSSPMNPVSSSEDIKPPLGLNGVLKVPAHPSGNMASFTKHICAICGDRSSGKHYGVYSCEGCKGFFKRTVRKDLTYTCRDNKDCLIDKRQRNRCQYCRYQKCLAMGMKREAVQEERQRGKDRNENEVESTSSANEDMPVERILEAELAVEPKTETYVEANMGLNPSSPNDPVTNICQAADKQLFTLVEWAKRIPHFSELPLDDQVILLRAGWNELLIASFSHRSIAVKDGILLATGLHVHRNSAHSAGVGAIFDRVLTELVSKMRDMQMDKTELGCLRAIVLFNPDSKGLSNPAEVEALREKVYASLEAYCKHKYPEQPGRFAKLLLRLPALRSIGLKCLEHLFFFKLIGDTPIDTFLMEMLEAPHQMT

Tests used:
[1] = target: T1, FAR (FXR) (Rattus norvegicus) (UniProt Q62735); test: activity in cells; conditions: protein in cells; protein details: CMV-driven expression in CV-1 cells; variant of hsp27-EcRE; only the site is given
T1 sequence (limits assumed): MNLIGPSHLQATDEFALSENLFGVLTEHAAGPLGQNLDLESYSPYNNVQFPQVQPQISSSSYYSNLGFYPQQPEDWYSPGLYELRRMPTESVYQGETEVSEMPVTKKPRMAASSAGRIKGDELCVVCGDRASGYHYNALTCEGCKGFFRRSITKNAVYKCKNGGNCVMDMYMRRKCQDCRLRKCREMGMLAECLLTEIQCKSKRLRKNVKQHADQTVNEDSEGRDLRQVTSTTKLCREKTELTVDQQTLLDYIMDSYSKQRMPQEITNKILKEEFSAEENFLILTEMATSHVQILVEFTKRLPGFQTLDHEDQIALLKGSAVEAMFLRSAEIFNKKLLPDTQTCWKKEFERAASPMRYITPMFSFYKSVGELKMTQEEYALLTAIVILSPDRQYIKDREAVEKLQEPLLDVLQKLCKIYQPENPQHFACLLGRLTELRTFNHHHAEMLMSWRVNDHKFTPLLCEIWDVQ

RXRalpha (Homo sapiens) = RXRalpha (Homo sapiens) (UniProt P19793); test: activity in cells; conditions: RXRalpha alone not activated by 50 uM JH III; protein in cells; protein details: CMV-driven expression in CV-1 cells; variant of hsp27-EcRE; only the site is given

## GGTTCAATGCACT (double strand) [hsp27-EcREx5 MTV-luciferase reporter]
[1]
  activity on this sequence: not active
RXRalpha (Homo sapiens)
  activity on this sequence: not active
